Source: article PMC8490708
Results are given in words; binding and its absence hold for the method and conditions named. In cells and extracts the contact can be indirect. Some results given as binding are weak or reduced against the parent protein; the word gives no strength. Where a sequence is shown, tags or fusion partners need not be part of it.

Biological target: T1, SALL1-YFP (human) (UniProt Q9NSC2)
T1 sequence: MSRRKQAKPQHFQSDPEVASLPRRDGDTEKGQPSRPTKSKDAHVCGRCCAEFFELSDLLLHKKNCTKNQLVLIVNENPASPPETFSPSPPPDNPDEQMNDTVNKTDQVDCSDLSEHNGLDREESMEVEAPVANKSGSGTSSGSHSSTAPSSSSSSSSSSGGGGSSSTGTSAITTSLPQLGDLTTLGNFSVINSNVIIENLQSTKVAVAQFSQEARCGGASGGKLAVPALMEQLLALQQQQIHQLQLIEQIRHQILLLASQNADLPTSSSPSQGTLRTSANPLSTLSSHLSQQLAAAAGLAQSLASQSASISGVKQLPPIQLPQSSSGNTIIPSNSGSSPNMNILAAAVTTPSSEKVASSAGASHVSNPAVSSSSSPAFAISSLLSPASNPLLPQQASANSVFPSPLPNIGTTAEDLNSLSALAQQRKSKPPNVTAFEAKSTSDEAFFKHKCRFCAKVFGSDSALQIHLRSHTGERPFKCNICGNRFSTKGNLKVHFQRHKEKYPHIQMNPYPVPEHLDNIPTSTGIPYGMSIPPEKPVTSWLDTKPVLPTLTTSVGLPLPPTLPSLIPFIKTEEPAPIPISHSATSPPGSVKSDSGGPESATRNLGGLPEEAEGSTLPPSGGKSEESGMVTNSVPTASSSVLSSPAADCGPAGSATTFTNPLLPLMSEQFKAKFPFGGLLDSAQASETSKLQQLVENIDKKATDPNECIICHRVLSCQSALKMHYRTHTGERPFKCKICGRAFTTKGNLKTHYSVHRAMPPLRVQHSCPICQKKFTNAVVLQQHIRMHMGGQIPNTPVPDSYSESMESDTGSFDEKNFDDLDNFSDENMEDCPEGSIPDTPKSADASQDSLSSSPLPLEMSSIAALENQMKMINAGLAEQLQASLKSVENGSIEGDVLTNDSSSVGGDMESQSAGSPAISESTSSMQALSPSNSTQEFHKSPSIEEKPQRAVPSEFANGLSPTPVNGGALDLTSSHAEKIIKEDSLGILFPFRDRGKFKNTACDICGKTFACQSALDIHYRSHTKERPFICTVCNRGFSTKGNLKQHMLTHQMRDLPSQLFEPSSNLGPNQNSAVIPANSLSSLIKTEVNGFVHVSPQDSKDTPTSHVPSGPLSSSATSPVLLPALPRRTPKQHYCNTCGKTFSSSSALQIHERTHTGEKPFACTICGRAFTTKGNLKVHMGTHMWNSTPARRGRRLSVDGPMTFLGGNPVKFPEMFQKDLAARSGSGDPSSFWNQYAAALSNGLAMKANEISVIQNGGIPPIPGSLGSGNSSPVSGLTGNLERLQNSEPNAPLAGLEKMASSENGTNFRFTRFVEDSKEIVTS
Test: pull-down; GFP-Trap co-pulldown: YFP-tagged bait and HA-tagged prey co-transfected in HEK 293FT cells; lysate (150 mM NaCl, 1% NP-40, 0.5% Triton X-100) with GFP-Trap resin overnight at 4°C; washes with 300 mM NaCl; Western blot

binding: binds
B1: CBX4-HA (protein, UniProt O00257 1-560)
chain: MELPAVGEHVFAVESIEKKRIRKGRVEYLVKWRGWSPKYNTWEPEENILDPRLLIAFQNRERQEQLMGYRKRGPKPKPLVVQVPTFARRSNVLTGLQDSSTDNRAKLDLGAQGKGQGHQYELNSKKHHQYQPHSKERAGKPPPPGKSGKYYYQLNSKKHHPYQPDPKMYDLQYQGGHKEAPSPTCPDLGAKSHPPDKWAQGAGAKGYLGAVKPLAGAAGAPGKGSEKGPPNGMMPAPKEAVTGNGIGGKMKIVKNKNKNGRIVIVMSKYMENGMQAVKIKSGEVAEGEARSPSHKKRAADERHPPADRTFKKAAGAEEKKVEAPPKRREEEVSGVSDPQPQDAGSRKLSPTKEAFGEQPLQLTTKPDLLAWDPARNTHPPSHHPHPHPHHHHHHHHHHHHAVGLNLSHVRKRCLSETHGEREPCKKRLTARSISTPTCLGGSPAAERPADLPPAAALPQPEVILLDSDLDEPIDLRCVKTRSEAGEPPSSLQVKPETPASAAVAVAAAAAPTTTAEKPPAEAQDEPAESLSEFKPFFGNIIITDVTANCLTVTFKEYVTV
